{"source": "patent US9260817B2", "about": "“Freshening compositions comprising malodor binding polymers and malodor counteractants” (The Procter & Gamble Company, priority 2009, dated 2016)", "data": [{"assay": "Fadometer test for fabric yellowing of aldehyde solutions", "details": "1000 ppm aldehyde solution; 0.75 grams of product on 10 cm × 10 cm swatch; 5 hours simulated sunlight, SUNTEST CPS+ Fadometer", "values": [{"smiles": "CC(C)=CCC/C(C)=C/C=O", "note": "[citral aldehyde]", "Fadometer Test on treated Fabric": "No yellowing"}, {"smiles": "CCCCCCCCCCCC=O", "note": "[lauric aldehyde]", "Fadometer Test on treated Fabric": "No yellowing"}, {"smiles": "CCCCC/C(C=O)=C/c1ccccc1", "note": "[amylic cinnamic aldehyde]", "Fadometer Test on treated Fabric": "Yellowish brown"}, {"smiles": "CC(C)=CCCC(C)CC=O", "note": "(stereo not shown) [citronellal]", "Fadometer Test on treated Fabric": "Yellowish brown"}]}]}
